Data source: PubChem BioAssay AID504774 (Drosophila RNAi Screening Center, 2011)

Assay: 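Fly genes whose loss alters survival after alkylation damage to DNA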 (primary screen)
Cell system: Drosophila Kc167 cells
Reagent: long dsRNA against Drosophila genes, about 0.25 µg dsRNA per well
Timing: about 6 days: 3 days knock-down, then 3 days with or without MMS
Challenge: methyl methanesulphonate 0.004% (w/v) for 3 days after knock-down
Measured: 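ATP-dependent luminescence as a measure of live cells in MMS-exposed wells, quantile normalised within each plate, with replicate values also given as a mean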
Scale: mean viability with MMS and viability with MMS: higher = more surviving cells after MMS
The screen tested about 23,000 reagents; below is a random part of those with a known target gene and a result. 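Values are quantile-normalised luminescence on an arbitrary scale; higher means more cells surviving MMS.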 Reagents against one gene are numbered here. A plus sign joins genes that one reagent is predicted to hit.

| gene knocked down | dsRNA no. | mean viability with MMS | viability with MMS, replicate 1 | viability with MMS, replicate 2 |
| --- | --- | --- | --- | --- |
| CG11400 (GeneID 36935) | 1 | 3.57e6 | 4.04e6 | 4.04e6 |
| ix (GeneID 45881) | 1 | 3.44e6 | 4.09e6 | 3.86e6 |
| CG10209 (GeneID 36652) | 1 | 3.47e6 | 3.86e6 | 3.98e6 |
| CG31460 (GeneID 318747) | 1 | 3.57e6 | 4.11e6 | 4.02e6 |
| jim (GeneID 43924) | 1 | 3.64e6 | 4.04e6 | 4.20e6 |
| DZIP1 (GeneID 42921) | 1 | 3.32e6 | 3.74e6 | 3.72e6 |
| ko (GeneID 40330) | 1 | 3.58e6 | 4.07e6 | 4.05e6 |
| His4r (GeneID 41773) | 1 | 3.12e6 | 3.61e6 | 3.53e6 |
| CG4049 (GeneID 37860) | 1 | 3.56e6 | 4.01e6 | 4.08e6 |
| CG17855 (GeneID 34269) | 1 | 3.49e6 | 3.91e6 | 4.00e6 |
| CG12464 (GeneID 36516) | 1 | 3.51e6 | 4.01e6 | 4.02e6 |
| CG15177 (GeneID 40810) | 1 | 3.68e6 | 4.23e6 | 4.08e6 |
| cn (GeneID 35724) | 1 | 3.46e6 | 3.83e6 | 4.04e6 |
| slf (GeneID 33678) | 1 | 3.53e6 | 4.02e6 | 3.97e6 |
| CG3337 (GeneID 42519) | 1 | 1.85e6 | 4.09e6 | 3.93e6 |
| CG42380 + CG42379 + PIG-M + 1 more | 1 | 3.38e6 | 3.75e6 | 3.97e6 |
| CG42380 + CG42379 + PIG-M + 1 more | 2 | 3.41e6 | 3.77e6 | 3.96e6 |
| Rnp4F (GeneID 31448) | 1 | 3.58e6 | 4.04e6 | 4.11e6 |
| viaf (GeneID 39364) | 1 | 3.63e6 | 4.03e6 | 4.21e6 |
| mol (GeneID 34872) | 1 | 3.31e6 | 3.78e6 | 3.65e6 |
| mol (GeneID 34872) | 2 | 3.50e6 | 4.13e6 | 3.79e6 |
| mol (GeneID 34872) | 3 | 3.73e6 | 4.11e6 | 4.25e6 |
| CG34149 (GeneID 4379861) | 1 | 3.45e6 | 3.95e6 | 3.86e6 |
| CG32240 (GeneID 317933) | 1 | 3.53e6 | 4.01e6 | 3.98e6 |
| CG8060 (GeneID 36824) | 1 | 3.61e6 | 4.12e6 | 4.09e6 |
| CG13073 (GeneID 39773) | 1 | 3.55e6 | 3.93e6 | 4.13e6 |
| Sap-r (GeneID 43662) | 1 | 3.53e6 | 3.94e6 | 4.09e6 |
| Sap-r (GeneID 43662) | 2 | 3.62e6 | 4.04e6 | 4.13e6 |
| Zmynd10 (GeneID 39481) | 1 | 3.61e6 | 3.96e6 | 4.19e6 |
| CG1999 (GeneID 31671) | 1 | 3.47e6 | 4.01e6 | 3.91e6 |
| CG34232 (GeneID 5740195) | 1 | 3.50e6 | 3.91e6 | 4.06e6 |
| Tudor-SN (GeneID 38045) | 1 | 3.44e6 | 3.87e6 | 3.95e6 |
| Cbp80 (GeneID 44409) | 1 | 3.05e6 | 3.18e6 | 3.68e6 |
| CG8157 (GeneID 36700) | 1 | 3.88e6 | 4.00e6 | 4.63e6 |
| CG8157 (GeneID 36700) | 2 | 3.50e6 | 3.94e6 | 4.03e6 |
| E2f1 (GeneID 42550) | 1 | 3.42e6 | 3.99e6 | 3.80e6 |
| Smvt (GeneID 43744) | 1 | 3.59e6 | 4.05e6 | 4.10e6 |
| CG31031 (retired record) (GeneID 318564) | 1 | 3.65e6 | 4.16e6 | 4.09e6 |
| fend (GeneID 31843) | 1 | 3.47e6 | 3.90e6 | 3.99e6 |
| fend (GeneID 31843) | 2 | 3.49e6 | 3.87e6 | 4.03e6 |
| wrm1 (GeneID 38810) | 1 | 3.55e6 | 4.07e6 | 3.99e6 |
| Mvd (GeneID 32520) | 1 | 3.48e6 | 4.03e6 | 3.84e6 |
| CG33262 (GeneID 2768975) | 1 | 3.34e6 | 3.90e6 | 3.83e6 |
| CG7582 (GeneID 43492) | 1 | 3.40e6 | 3.83e6 | 3.82e6 |
| CG33221 (retired record) (GeneID 2768878) | 1 | 3.65e6 | 4.11e6 | 4.12e6 |
| Lipt2 (GeneID 40565) | 1 | 3.53e6 | 3.94e6 | 4.05e6 |
| Lipt2 (GeneID 40565) | 2 | 3.55e6 | 4.04e6 | 3.99e6 |
| CG14352 (GeneID 33341) | 1 | 3.44e6 | 3.85e6 | 3.93e6 |
| lush (GeneID 40136) | 1 | 3.55e6 | 3.84e6 | 4.21e6 |
| CG14818 (GeneID 31147) | 1 | 3.57e6 | 4.08e6 | 4.02e6 |
| ogre (GeneID 45382) | 1 | 3.50e6 | 3.94e6 | 3.75e6 |
| HemK1 (GeneID 33902) | 1 | 3.40e6 | 3.68e6 | 3.91e6 |
| Task7 (GeneID 41125) | 1 | 3.63e6 | 4.08e6 | 4.09e6 |
| Hph (GeneID 40633) | 1 | 3.57e6 | 4.05e6 | 4.09e6 |
| Hph (GeneID 40633) | 2 | 3.39e6 | 3.89e6 | 3.81e6 |
| PolD1 (GeneID 39746) | 1 | 3.29e6 | 3.72e6 | 3.69e6 |

10 neighbouring entries from above, for reference:
| gene knocked down | dsRNA no. | mean viability with MMS | viability with MMS, replicate 1 | viability with MMS, replicate 2 |
| --- | --- | --- | --- | --- |
| wrm1 (GeneID 38810) | 1 | 3.55e6 | 4.07e6 | 3.99e6 |
| Mvd (GeneID 32520) | 1 | 3.48e6 | 4.03e6 | 3.84e6 |
| CG33262 (GeneID 2768975) | 1 | 3.34e6 | 3.90e6 | 3.83e6 |
| CG7582 (GeneID 43492) | 1 | 3.40e6 | 3.83e6 | 3.82e6 |
| CG33221 (retired record) (GeneID 2768878) | 1 | 3.65e6 | 4.11e6 | 4.12e6 |
| Lipt2 (GeneID 40565) | 1 | 3.53e6 | 3.94e6 | 4.05e6 |
| Lipt2 (GeneID 40565) | 2 | 3.55e6 | 4.04e6 | 3.99e6 |
| CG14352 (GeneID 33341) | 1 | 3.44e6 | 3.85e6 | 3.93e6 |
| lush (GeneID 40136) | 1 | 3.55e6 | 3.84e6 | 4.21e6 |
| CG14818 (GeneID 31147) | 1 | 3.57e6 | 4.08e6 | 4.02e6 |

The results go on:
| gene knocked down | dsRNA no. | mean viability with MMS | viability with MMS, replicate 1 | viability with MMS, replicate 2 |
| --- | --- | --- | --- | --- |
| TTLL6B (GeneID 43282) | 1 | 3.42e6 | 3.91e6 | 3.79e6 |
| CG7332 (GeneID 32885) | 1 | 3.59e6 | 4.19e6 | 3.99e6 |
| Ndf (GeneID 192507) | 1 | 3.45e6 | 3.89e6 | 3.88e6 |
| CG11470 (GeneID 43480) | 1 | 3.55e6 | 4.01e6 | 4.02e6 |
| CG6026 (GeneID 42287) | 1 | 3.58e6 | 4.25e6 | 3.87e6 |
| vg (GeneID 36421) | 1 | 3.81e6 | 3.89e6 | 3.90e6 |
| vg (GeneID 36421) | 2 | 3.41e6 | 3.88e6 | 3.94e6 |
| CG15160 (GeneID 35109) | 1 | 3.86e6 | 4.23e6 | 4.47e6 |
| CG32260 (GeneID 317943) | 1 | 3.67e6 | 4.27e6 | 4.03e6 |
| asun (GeneID 41971) | 1 | 3.56e6 | 4.09e6 | 3.98e6 |
| CG18004 (GeneID 36154) | 1 | 3.72e6 | 4.04e6 | 4.40e6 |
| Fem-1 (GeneID 37344) | 1 | 3.54e6 | 4.00e6 | 4.01e6 |
| Zw10 (GeneID 47874) | 1 | 3.59e6 | 4.07e6 | 4.07e6 |
| CG15127 (GeneID 50203) | 1 | 3.58e6 | 4.01e6 | 4.09e6 |
| CG15127 (GeneID 50203) | 2 | 3.60e6 | 4.04e6 | 4.12e6 |
| Nckx30C (GeneID 45248) | 1 | 3.71e6 | 4.04e6 | 4.37e6 |
| Nckx30C (GeneID 45248) | 2 | 3.51e6 | 4.01e6 | 3.97e6 |
| Nckx30C (GeneID 45248) | 3 | 3.43e6 | 3.78e6 | 3.98e6 |
| Nckx30C (GeneID 45248) | 4 | 3.33e6 | 3.77e6 | 3.70e6 |
| Tsp2A (GeneID 31080) | 1 | 3.50e6 | 3.91e6 | 4.04e6 |
| Gadd45 (GeneID 35646) | 1 | 3.58e6 | 4.02e6 | 4.07e6 |
| CG17807 (GeneID 37585) | 1 | 3.64e6 | 3.99e6 | 4.30e6 |
| CG6209 (GeneID 36517) | 1 | 3.61e6 | 4.31e6 | 3.94e6 |
| Cmpk (GeneID 43165) | 1 | 3.63e6 | 4.11e6 | 4.10e6 |
| Arl8 (GeneID 40961) | 1 | 3.61e6 | 4.07e6 | 4.12e6 |
| spir (GeneID 45931) | 1 | 3.63e6 | 4.13e6 | 4.09e6 |
| CG13492 (GeneID 37487) | 1 | 3.60e6 | 4.11e6 | 4.06e6 |
| Cdk9 (GeneID 37586) | 1 | 3.27e6 | 3.59e6 | 3.70e6 |
| Ir60e (GeneID 37917) | 1 | 3.63e6 | 4.04e6 | 4.21e6 |
| CG14218 (GeneID 32949) | 1 | 3.51e6 | 3.95e6 | 4.04e6 |
| CG2865 (GeneID 31217) | 1 | 3.66e6 | 4.13e6 | 4.14e6 |
| CG2865 (GeneID 31217) | 2 | 1.32e6 | 3.54e6 | 3.62e6 |
